Results from patent publication US5770593A, “Method of determining a pharmaceutical combination preparations for use in anti-neoplastic therapy” (Boehringer Mannheim GmbH, priority 1988, dated 1998).
Read-outs that look alike come from different tables or passages of the source.

Assays:
protein kinase C = assay: Inhibition of protein kinase C (PK-C): in vitro method, 32P incorporation into H1 histone; assay type: biochemical, rat
Method: b) Inhibition of protein kinase C (PK-C): in vitro method.
However, to the extracts was additionally added 1 mM phenylmethanesulphonyl chloride, 20 μg./ml. leupeptin and 2 μg./ml. aprotinin. […] 1,2-s,n-diolein. The reaction time was 10 minutes at 32° C. The enzyme reaction was stopped by the addition of 1 ml. 20% trichloroacetic acid (w/v). The protein was precipitated out on Whatman GF/F filter paper and counted with the help of a liquid scintillation counter.
Quercetin was solubilised in dimethyl sulphoxide (DMSO). For the batch mixing, the solution in DMSO was made up to a DMSO end concentration of 1%. An equivalent amount of pure DMSO was added to the control groups. The influence of quercetin on the cell multiplication was investigated by the addition of the active material in DMSO to the culture medium up to an end concentration of 0.1%. The cells were cultured in the presence of the active material for 48 hours. The control group only received pure DMSO.

Walker carcinoma cells = assay: Inhibition of multiplication of Walker cells (cell proliferation), single active material or combination, Chou and Talalay analysis; assay type: cell-based; details: Rattus norvegicus

## CC/C(=C(\c1ccccc1)c1ccc(OCCN(C)C)cc1)c1ccccc1 [tamoxifen]
Protein kinase C; Table 1, 50% inhibition of the protein kinase C, read-out: inhibition of the protein kinase C IC50
  IC50: 11.2 µM
Protein kinase C; protein kinase C enriched from Walker cells, 10 minutes at 32° C., pH 7.4, read-out: IC50, inhibition of protein kinase C (Examples 2-6)
  IC50: 11.2 µM
Walker carcinoma cells; 48 h, read-out: IC50 cell proliferation in combination with cis-DDP
  IC50: 2.24 µM
Walker carcinoma cells; Table 1, single active material, 48 hours, read-out: IC50 cell proliferation
  IC50: 12.4 µM
